Assay results reported in the supplement of paper PMC12067093, “Discovery and optimisation of a covalent ligand for TRIM25 and its application to targeted protein ubiquitination” (Chemical Science, 2025).
The list shows a part of the results.

Sequences of proteins named here, by UniProt entry; tags and fusion partners are left off. A change or cut given only in a name is not applied to a line headed by its entry.
UniProt Q14807: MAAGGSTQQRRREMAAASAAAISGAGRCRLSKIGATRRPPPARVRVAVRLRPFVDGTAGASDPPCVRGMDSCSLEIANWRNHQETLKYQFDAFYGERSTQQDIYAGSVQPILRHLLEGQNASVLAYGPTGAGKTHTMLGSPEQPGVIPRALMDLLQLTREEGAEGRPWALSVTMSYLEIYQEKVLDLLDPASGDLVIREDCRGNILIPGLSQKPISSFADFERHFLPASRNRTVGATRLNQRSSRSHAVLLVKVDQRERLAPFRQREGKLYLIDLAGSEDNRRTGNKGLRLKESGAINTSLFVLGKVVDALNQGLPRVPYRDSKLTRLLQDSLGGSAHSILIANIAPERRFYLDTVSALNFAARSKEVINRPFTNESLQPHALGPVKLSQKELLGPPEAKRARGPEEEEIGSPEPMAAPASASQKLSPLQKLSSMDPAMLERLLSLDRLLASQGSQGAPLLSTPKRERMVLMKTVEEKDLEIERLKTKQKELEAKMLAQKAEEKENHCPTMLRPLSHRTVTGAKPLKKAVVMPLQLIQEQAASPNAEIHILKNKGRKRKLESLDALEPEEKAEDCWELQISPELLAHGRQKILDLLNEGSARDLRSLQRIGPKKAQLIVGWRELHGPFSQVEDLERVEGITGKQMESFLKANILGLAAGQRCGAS
UniProt Q9P2K6: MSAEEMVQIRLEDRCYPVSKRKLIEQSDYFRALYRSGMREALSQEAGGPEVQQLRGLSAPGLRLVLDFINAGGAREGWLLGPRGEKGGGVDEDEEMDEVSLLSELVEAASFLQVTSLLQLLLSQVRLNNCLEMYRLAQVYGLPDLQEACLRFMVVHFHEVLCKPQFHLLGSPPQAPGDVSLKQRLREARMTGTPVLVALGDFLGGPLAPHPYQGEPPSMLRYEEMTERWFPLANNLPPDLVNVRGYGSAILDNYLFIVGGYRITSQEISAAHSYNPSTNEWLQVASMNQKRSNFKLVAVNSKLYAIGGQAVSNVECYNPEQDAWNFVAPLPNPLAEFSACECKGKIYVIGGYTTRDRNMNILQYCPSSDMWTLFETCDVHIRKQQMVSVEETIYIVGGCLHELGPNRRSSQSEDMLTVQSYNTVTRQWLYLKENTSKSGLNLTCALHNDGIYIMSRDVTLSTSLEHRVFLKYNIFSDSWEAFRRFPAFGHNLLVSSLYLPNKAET
UniProt Q96EM0: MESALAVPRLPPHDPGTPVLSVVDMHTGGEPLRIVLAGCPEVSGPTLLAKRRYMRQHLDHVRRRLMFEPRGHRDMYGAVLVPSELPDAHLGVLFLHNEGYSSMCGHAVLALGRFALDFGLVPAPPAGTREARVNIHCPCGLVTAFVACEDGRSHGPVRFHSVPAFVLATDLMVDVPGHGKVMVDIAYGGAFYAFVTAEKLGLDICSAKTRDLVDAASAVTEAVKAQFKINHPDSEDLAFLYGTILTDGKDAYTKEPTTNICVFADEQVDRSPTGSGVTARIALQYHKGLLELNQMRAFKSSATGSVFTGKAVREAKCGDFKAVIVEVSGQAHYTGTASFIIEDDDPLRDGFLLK
UniProt Q14974, whole entry, looked up: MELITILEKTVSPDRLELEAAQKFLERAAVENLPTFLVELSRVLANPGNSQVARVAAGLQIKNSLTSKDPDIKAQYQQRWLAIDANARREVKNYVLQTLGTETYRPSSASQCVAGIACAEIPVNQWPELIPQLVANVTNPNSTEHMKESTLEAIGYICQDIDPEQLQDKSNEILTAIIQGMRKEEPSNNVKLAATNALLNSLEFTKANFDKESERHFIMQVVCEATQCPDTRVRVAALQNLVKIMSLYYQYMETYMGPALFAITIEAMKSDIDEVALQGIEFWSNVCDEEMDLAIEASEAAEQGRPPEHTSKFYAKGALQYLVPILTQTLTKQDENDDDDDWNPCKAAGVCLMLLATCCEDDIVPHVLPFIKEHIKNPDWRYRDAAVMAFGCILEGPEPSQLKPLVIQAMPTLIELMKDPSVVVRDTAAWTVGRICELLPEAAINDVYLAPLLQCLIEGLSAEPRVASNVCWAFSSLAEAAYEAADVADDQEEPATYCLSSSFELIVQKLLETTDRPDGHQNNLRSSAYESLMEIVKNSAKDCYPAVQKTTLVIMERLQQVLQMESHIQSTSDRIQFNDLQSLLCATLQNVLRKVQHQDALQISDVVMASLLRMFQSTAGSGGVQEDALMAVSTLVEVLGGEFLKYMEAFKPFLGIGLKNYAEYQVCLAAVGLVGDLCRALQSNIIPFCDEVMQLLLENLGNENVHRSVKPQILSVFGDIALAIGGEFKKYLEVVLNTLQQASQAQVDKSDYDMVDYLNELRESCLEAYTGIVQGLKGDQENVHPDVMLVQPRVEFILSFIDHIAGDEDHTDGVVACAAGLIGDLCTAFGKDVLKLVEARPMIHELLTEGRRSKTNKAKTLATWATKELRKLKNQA
UniProt Q14847: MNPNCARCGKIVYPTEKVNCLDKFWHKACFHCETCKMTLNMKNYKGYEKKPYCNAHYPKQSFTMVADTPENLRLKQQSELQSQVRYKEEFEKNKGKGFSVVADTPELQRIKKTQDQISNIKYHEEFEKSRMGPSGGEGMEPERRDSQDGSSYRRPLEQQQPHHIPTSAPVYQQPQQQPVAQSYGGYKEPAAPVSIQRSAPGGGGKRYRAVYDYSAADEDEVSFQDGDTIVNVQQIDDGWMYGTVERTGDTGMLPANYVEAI
UniProt P11047: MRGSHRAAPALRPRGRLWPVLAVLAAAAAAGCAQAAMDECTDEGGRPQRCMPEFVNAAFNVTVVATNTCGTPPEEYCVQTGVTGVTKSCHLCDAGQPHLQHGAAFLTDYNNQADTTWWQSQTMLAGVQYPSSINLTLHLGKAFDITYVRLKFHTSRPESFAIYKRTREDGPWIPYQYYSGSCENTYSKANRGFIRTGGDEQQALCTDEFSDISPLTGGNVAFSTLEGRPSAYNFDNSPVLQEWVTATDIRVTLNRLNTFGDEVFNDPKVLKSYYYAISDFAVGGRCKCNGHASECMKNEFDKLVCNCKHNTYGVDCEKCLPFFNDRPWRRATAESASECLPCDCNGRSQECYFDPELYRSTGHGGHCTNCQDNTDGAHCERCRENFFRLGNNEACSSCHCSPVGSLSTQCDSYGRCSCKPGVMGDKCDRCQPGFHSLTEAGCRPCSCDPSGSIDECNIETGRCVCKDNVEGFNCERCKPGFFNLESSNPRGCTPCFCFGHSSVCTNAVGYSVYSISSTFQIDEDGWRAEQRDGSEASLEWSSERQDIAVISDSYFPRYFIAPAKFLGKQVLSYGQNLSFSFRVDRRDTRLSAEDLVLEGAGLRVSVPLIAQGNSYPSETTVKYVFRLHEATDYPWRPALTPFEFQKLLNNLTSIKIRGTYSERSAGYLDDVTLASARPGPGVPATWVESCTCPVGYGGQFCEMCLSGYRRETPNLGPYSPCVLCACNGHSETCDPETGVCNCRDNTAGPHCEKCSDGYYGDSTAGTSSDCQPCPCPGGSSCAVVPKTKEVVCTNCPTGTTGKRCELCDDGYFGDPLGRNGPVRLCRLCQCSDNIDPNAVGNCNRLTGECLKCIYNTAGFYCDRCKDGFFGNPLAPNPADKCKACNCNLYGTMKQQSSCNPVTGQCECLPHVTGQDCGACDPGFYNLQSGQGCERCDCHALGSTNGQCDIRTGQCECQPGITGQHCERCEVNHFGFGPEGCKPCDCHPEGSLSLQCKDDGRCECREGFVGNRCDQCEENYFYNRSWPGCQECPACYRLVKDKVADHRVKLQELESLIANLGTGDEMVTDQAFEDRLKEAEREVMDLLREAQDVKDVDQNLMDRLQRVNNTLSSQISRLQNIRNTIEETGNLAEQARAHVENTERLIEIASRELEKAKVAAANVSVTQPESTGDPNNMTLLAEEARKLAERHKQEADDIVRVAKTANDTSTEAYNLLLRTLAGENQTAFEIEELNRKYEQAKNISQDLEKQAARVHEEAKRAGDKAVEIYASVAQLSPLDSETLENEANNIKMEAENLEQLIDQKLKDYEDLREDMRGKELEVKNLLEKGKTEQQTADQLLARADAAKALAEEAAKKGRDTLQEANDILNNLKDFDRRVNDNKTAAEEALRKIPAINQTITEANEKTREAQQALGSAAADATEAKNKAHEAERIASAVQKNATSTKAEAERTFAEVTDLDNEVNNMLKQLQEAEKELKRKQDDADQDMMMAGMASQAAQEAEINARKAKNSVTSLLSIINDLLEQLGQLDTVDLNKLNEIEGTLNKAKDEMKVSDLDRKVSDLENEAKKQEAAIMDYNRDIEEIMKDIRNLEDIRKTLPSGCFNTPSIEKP
UniProt Q8IXQ5, whole entry, looked up: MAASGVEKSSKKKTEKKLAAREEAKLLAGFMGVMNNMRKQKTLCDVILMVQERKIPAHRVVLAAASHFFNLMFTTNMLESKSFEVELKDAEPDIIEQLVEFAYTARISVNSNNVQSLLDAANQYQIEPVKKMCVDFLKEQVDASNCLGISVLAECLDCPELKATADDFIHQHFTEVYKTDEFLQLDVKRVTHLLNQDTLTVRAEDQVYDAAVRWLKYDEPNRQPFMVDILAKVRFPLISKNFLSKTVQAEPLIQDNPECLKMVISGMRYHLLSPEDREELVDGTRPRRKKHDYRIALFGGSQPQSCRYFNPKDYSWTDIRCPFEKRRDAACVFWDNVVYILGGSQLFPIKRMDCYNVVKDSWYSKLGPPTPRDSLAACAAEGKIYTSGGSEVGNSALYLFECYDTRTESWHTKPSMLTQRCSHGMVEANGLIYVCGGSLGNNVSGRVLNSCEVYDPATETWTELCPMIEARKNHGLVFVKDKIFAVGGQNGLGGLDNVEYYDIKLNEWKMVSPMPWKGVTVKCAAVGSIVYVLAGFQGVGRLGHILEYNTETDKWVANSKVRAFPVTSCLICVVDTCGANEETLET
UniProt Q96JN0: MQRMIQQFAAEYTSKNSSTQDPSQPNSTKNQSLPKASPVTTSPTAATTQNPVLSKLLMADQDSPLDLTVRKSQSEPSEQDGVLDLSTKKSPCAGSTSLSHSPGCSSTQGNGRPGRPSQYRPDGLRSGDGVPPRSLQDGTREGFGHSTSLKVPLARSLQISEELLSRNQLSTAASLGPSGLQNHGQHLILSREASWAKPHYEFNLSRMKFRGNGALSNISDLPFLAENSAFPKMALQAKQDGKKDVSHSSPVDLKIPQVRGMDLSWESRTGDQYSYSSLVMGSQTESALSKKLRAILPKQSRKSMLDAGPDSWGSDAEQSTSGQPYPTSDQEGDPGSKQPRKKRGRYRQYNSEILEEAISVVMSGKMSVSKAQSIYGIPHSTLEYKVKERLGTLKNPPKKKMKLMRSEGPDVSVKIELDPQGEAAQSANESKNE
UniProt Q13601: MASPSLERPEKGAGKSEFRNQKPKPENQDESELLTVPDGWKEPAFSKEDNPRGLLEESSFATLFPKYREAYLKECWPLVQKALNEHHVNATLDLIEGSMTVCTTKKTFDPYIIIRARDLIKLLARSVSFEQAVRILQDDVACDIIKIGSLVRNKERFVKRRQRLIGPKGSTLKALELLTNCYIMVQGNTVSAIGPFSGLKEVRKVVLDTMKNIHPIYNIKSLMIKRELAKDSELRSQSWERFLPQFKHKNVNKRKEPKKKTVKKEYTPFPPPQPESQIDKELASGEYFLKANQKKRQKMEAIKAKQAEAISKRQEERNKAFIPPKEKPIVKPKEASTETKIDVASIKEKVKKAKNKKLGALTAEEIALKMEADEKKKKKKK
UniProt O00629, whole entry, looked up: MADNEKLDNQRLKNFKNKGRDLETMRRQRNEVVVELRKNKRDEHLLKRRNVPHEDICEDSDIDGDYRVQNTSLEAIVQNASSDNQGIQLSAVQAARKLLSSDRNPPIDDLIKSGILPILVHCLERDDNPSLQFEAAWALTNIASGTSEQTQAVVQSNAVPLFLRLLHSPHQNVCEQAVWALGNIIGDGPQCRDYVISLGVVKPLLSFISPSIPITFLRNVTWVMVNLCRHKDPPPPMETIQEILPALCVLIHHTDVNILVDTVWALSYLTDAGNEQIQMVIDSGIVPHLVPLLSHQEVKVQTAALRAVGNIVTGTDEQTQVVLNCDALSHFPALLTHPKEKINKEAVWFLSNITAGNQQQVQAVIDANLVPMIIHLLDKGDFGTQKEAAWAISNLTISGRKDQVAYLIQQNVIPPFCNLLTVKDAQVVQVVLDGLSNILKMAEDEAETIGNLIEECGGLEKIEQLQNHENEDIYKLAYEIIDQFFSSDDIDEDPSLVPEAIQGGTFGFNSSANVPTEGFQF

Compound: CC1Cc2ccccc2N1C(=O)C1CCCN(C1)C(=O)CCl (mixture of isomers) [TRIM25 ligand 11 (diastereomer mixture)]
Test: probe-labelled cysteine peptide fold change vs DMSO (competition) (log2 fold change); higher = less target engagement (more negative = stronger competition)
Conditions: THP-1, incubation time: 4 h
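Further: competitive chemoproteomic profiling in live THP-1 cells with an iodoacetamide desthiobiotin (IA-DTB) probe, comparing probe-labelled peptide intensities in compound-treated cells against DMSO-treated controls.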

Target	probe-labelled cysteine peptide fold change (10 µM)	probe-labelled cysteine peptide fold change (50 µM)
KIF22_Q14807_201_VLDLLDPASGDLVIREDCR (UniProt Q14807)	-0.154	-0.158
KLHL42_Q9P2K6_399_QQMVSVEETIYIVGGCLHELGPNRR (UniProt Q9P2K6)	0.0912	0.485
L3HYPDH_Q96EM0_137+148_VNIHCPCGLVTAFVACEDGR (UniProt Q96EM0)	0.205	-0.12
KPNB1_Q14974_392_YRDAAVMAFGCILEGPEPSQLK (UniProt Q14974)	-0.231	-0.049
L3HYPDH_Q96EM0_148_VNIHCPCGLVTAFVACEDGR (UniProt Q96EM0)	0.416	0.338
LASP1_Q14847_35_ACFHCETCK (UniProt Q14847)	-0.0242	0.0173
L3HYPDH_Q96EM0_205_LGLDICSAK (UniProt Q96EM0)	0.113	0.229
LAMTOR5_O43504_66_LTSDPTDIPVVCLESDNGNIMIQK (UniProt O43504)	0.113	-0.281
KMT2D_O14686_214_TLQLLCPEHSEGAAYLEEAR (UniProt O14686)	0.206	0.175
LAMC1_P11047_477_CKPGFFNLESSNPR (UniProt P11047)	0.0155	0.286
LCP1_P13796_206_KKLTPFTIQENLNLALNSASAIGCHVVNIGAEDLK (UniProt P13796)	-0.238	-0.228
KLHL7_Q8IXQ5_44_TLCDVILMVQER (UniProt Q8IXQ5)	0.0233	0.341
LCOR_Q96JN0-3_968_NAHIPSESIACK (UniProt Q96JN0)	0.0458	-0.153
KMT2B_Q9UMN6_353_VGSGQGGSPCWK (UniProt Q9UMN6)	-0.0522	-0.253
KRR1_Q13601_102_ALNEHHVNATLDLIEGSMTVCTTK (UniProt Q13601)	-0.0373	0.121
KPNA4_O00629_57_NVPHEDICEDSDIDGDYR (UniProt O00629)	-0.332	-0.102

A section from the list above, as a working copy:
Target	probe-labelled cysteine peptide fold change (10 µM)	probe-labelled cysteine peptide fold change (50 µM)
KLHL7_Q8IXQ5_44_TLCDVILMVQER (UniProt Q8IXQ5)	0.0233	0.341
LCOR_Q96JN0-3_968_NAHIPSESIACK (UniProt Q96JN0)	0.0458	-0.153
